These are yes or no findings as the source states them, for the method shown. In cells and extracts the contact can be indirect. Some results given as binding are weak or reduced against the parent protein; the word gives no strength. Sequences can lack the tags named with a protein. One block for each binder: values may come before it.
B6: GFP-RILP (mouse RILP in pEGFP-C1) (other, UniProt Q5ND29 1-369, looked up)
chain: MEPRRAAPRLPSQASSSVGAGSAAELVYHLAGALGTELQGLARRFGPDAAAGLVPLVVRALELLEKAAVGPAPDSLQVSAQQAEVELRRLREENQRLRQELGSGPQEERALLRQLKEVTDRQRDELRAHNRDLQRRSQETEALQEQLQRLLLINSELRHKLAAVQTQLRAAQDRERERQIAQDGSSQLAKEQSLEPDAATSDDPVDTQKQPGNLPEAVQCGFSREELKQILQERNELKANVFLLKEELAYFQRELLTDHRVPGLLLEAMKVAVKKQRRKIKAKMLGTPEEAESSEDEDGSWLLLSNDKEDVPLVPESRIQNFFGLWYRGETEAPEAETSNPASSSLQKGEETPQQPHLQPVNSPPAPNS
notes: Expressed in transfected RBL cells; tested in cell lysate; also called GFP-fused RILP; pEGFP-C1-RILP; not shown: EGFP of the pEGFP-C1 vector

Experiments:
[1] = target: T1, endogenous Rab12 of RBL cells (rat, UniProt P35284 49-291, limits assumed); assay: GST pulldown from RBL cell lysates, anti-Rab12 immunoblot
T1 construct: Total Rab12 pulled down from cell lysates (blot reprobed with anti-Rab12)
T1 sequence (looked up): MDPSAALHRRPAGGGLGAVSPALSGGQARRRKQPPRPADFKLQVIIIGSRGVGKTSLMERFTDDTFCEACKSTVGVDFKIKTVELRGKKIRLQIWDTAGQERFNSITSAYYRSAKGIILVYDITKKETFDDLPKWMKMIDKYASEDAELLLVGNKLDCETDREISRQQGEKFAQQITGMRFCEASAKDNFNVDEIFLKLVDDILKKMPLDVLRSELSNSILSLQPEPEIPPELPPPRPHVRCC

[2] = target: T2, GFP-RILP-L2 (mouse RILP-like 2 in pEGFP-C1) (mouse) (UniProt Q99LE1); assay: reciprocal co-immunoprecipitation, IP anti-T7, blot anti-GFP
T2 sequence (looked up): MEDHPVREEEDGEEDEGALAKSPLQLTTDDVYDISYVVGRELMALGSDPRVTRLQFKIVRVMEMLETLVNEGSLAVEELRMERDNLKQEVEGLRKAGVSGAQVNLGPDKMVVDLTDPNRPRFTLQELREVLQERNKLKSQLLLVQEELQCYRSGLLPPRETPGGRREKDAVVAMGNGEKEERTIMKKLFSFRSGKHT

[3] = target: T3, GFP-RILP-L1 (mouse RILP-like 1 in pEGFP-C1) (mouse) (UniProt Q9JJC6); assay: as above
T3 sequence (looked up): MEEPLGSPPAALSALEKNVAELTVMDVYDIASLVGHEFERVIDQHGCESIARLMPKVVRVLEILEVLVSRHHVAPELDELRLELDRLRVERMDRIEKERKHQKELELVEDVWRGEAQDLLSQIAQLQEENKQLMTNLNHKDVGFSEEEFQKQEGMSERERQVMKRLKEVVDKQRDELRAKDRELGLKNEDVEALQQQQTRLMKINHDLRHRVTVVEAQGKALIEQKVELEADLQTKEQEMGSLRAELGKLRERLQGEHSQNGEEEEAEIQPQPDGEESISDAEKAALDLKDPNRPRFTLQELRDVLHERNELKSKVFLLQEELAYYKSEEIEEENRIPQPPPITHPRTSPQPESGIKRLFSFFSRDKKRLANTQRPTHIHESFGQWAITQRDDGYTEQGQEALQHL

[4] = target: T4, T7-RILP (pEF-T7-RILP) (mouse) (UniProt Q5ND29); assay: GST pulldown with GTPgammaS, anti-T7 immunoblot; wild type as the reference
T4 sequence (looked up): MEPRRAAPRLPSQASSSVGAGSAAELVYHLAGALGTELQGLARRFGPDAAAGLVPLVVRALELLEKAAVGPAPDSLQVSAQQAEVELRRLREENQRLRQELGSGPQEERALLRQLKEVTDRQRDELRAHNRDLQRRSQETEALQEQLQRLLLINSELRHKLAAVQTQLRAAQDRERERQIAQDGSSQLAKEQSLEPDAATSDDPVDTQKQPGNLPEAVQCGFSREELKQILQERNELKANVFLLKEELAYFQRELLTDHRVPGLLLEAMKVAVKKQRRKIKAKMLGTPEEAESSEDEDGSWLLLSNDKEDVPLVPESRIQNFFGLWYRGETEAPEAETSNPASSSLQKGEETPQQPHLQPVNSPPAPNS

[5] = target: T5, T7-RILP-L2 (pEF-T7-RILP-L2) (mouse) (UniProt Q99LE1); assay: as above
T5 sequence (looked up): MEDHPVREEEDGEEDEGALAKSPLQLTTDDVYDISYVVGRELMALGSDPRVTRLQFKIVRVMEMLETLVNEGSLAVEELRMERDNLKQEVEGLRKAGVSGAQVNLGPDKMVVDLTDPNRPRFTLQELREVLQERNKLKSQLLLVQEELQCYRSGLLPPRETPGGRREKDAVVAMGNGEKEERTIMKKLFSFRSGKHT

[6] = target: T6, T7-RILP-L1 (pEF-T7-RILP-L1) (mouse, UniProt Q9JJC6 1-406); assay: as above
T6 construct: The pEF-T7 plasmid was 'prepared as previously described'; also called T7-tagged RILP-L1; RILP-like 1
T6 sequence (looked up): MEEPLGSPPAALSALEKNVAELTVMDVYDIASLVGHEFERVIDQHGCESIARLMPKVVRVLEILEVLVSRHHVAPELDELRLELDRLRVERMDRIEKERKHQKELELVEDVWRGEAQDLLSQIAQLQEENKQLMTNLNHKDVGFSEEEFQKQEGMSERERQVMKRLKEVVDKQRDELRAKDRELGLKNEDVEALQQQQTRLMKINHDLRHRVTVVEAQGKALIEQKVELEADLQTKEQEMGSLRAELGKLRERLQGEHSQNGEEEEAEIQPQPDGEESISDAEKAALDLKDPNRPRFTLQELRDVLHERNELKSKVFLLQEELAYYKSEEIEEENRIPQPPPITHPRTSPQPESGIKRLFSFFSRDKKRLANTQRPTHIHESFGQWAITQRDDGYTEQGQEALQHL

[7] = target: T4, T7-RILP (pEF-T7-RILP) (mouse); assay: co-immunoprecipitation of GFP- and T7-tagged forms from RBL cell lysates
[8] = target: T4, T7-RILP (pEF-T7-RILP) (mouse); assay: co-immunoprecipitation from co-transfected RBL cell lysates, IP anti-GFP, blot anti-T7
[9] = target: T7, GST-Rab12 (pGEX-4T-3-Rab12) (mouse) (UniProt P35283); assay: GST-Rab12 pulldown with GTPgammaS, anti-T7 immunoblot; wild type as the reference
T7 sequence (looked up): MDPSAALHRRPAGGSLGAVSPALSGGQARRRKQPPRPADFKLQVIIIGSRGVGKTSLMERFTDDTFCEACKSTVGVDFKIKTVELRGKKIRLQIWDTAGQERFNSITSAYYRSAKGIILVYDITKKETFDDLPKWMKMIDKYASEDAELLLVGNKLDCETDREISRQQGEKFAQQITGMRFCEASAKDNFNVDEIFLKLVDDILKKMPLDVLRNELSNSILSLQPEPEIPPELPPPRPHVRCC

[10] = target: B6; assay: reciprocal co-immunoprecipitation, IP anti-T7, blot anti-GFP
[11] = target: T7, GST-Rab12 (pGEX-4T-3-Rab12) (mouse); assay: GST-Rab12 pulldown with GTPgammaS, anti-T7 immunoblot
[12] = target: T7, GST-Rab12 (pGEX-4T-3-Rab12) (mouse); assay: GST-Rab12 pulldown, as recalled in Example 5

binding [1]: binds
B1: GST-RILP-L2 (pGEX-4T-3-RILP-L2) (other, mouse, UniProt Q99LE1 1-197, looked up)
chain: MEDHPVREEEDGEEDEGALAKSPLQLTTDDVYDISYVVGRELMALGSDPRVTRLQFKIVRVMEMLETLVNEGSLAVEELRMERDNLKQEVEGLRKAGVSGAQVNLGPDKMVVDLTDPNRPRFTLQELREVLQERNKLKSQLLLVQEELQCYRSGLLPPRETPGGRREKDAVVAMGNGEKEERTIMKKLFSFRSGKHT
notes: Immobilized on glutathione agarose beads; not shown: glutathione S-transferase (GST) encoded by the pGEX-4T-3 vector

binding [2]: binds
B2: T7-RILP-L2 (pEF-T7-RILP-L2) (other, mouse, UniProt Q99LE1 1-197, looked up, not shown: small tags and cut ends)
chain: MEDHPVREEEDGEEDEGALAKSPLQLTTDDVYDISYVVGRELMALGSDPRVTRLQFKIVRVMEMLETLVNEGSLAVEELRMERDNLKQEVEGLRKAGVSGAQVNLGPDKMVVDLTDPNRPRFTLQELREVLQERNKLKSQLLLVQEELQCYRSGLLPPRETPGGRREKDAVVAMGNGEKEERTIMKKLFSFRSGKHT
notes: The pEF-T7 plasmid was 'prepared as previously described'; also called T7-tagged RILP-L2; RILP-like 2

binding [1]: binds
B3: GST-RILP-L1 (pGEX-4T-3-RILP-L1) (other, mouse, UniProt Q9JJC6 1-406, looked up)
chain: MEEPLGSPPAALSALEKNVAELTVMDVYDIASLVGHEFERVIDQHGCESIARLMPKVVRVLEILEVLVSRHHVAPELDELRLELDRLRVERMDRIEKERKHQKELELVEDVWRGEAQDLLSQIAQLQEENKQLMTNLNHKDVGFSEEEFQKQEGMSERERQVMKRLKEVVDKQRDELRAKDRELGLKNEDVEALQQQQTRLMKINHDLRHRVTVVEAQGKALIEQKVELEADLQTKEQEMGSLRAELGKLRERLQGEHSQNGEEEEAEIQPQPDGEESISDAEKAALDLKDPNRPRFTLQELRDVLHERNELKSKVFLLQEELAYYKSEEIEEENRIPQPPPITHPRTSPQPESGIKRLFSFFSRDKKRLANTQRPTHIHESFGQWAITQRDDGYTEQGQEALQHL
notes: as for B1

binding [3]: binds
B4: T7-RILP-L1 (pEF-T7-RILP-L1) (protein, mouse, UniProt Q9JJC6 1-406, looked up, not shown: small tags and cut ends)
chain: MEEPLGSPPAALSALEKNVAELTVMDVYDIASLVGHEFERVIDQHGCESIARLMPKVVRVLEILEVLVSRHHVAPELDELRLELDRLRVERMDRIEKERKHQKELELVEDVWRGEAQDLLSQIAQLQEENKQLMTNLNHKDVGFSEEEFQKQEGMSERERQVMKRLKEVVDKQRDELRAKDRELGLKNEDVEALQQQQTRLMKINHDLRHRVTVVEAQGKALIEQKVELEADLQTKEQEMGSLRAELGKLRERLQGEHSQNGEEEEAEIQPQPDGEESISDAEKAALDLKDPNRPRFTLQELRDVLHERNELKSKVFLLQEELAYYKSEEIEEENRIPQPPPITHPRTSPQPESGIKRLFSFFSRDKKRLANTQRPTHIHESFGQWAITQRDDGYTEQGQEALQHL

binding [4]: binds | binding [5]: binds | binding [6]: binds
B5: GST-Rab12 (pGEX-4T-3-Rab12) (other, mouse, UniProt P35283 49-291, looked up)
chain: MDPSAALHRRPAGGSLGAVSPALSGGQARRRKQPPRPADFKLQVIIIGSRGVGKTSLMERFTDDTFCEACKSTVGVDFKIKTVELRGKKIRLQIWDTAGQERFNSITSAYYRSAKGIILVYDITKKETFDDLPKWMKMIDKYASEDAELLLVGNKLDCETDREISRQQGEKFAQQITGMRFCEASAKDNFNVDEIFLKLVDDILKKMPLDVLRNELSNSILSLQPEPEIPPELPPPRPHVRCC
notes: Immobilized on glutathione agarose beads; pulldown in the presence of 0.5 mM GTPgammaS; also called immobilized Rab12; not shown: glutathione S-transferase (GST) encoded by the pGEX-4T-3 vector

Binder: B6
binding [7]: binds | binding [8]: binds

binding [9]: binds | binding [10]: binds
B7: T7-RILP (pEF-T7-RILP) (protein, mouse, UniProt Q5ND29 1-369, looked up, not shown: small tags and cut ends)
chain: MEPRRAAPRLPSQASSSVGAGSAAELVYHLAGALGTELQGLARRFGPDAAAGLVPLVVRALELLEKAAVGPAPDSLQVSAQQAEVELRRLREENQRLRQELGSGPQEERALLRQLKEVTDRQRDELRAHNRDLQRRSQETEALQEQLQRLLLINSELRHKLAAVQTQLRAAQDRERERQIAQDGSSQLAKEQSLEPDAATSDDPVDTQKQPGNLPEAVQCGFSREELKQILQERNELKANVFLLKEELAYFQRELLTDHRVPGLLLEAMKVAVKKQRRKIKAKMLGTPEEAESSEDEDGSWLLLSNDKEDVPLVPESRIQNFFGLWYRGETEAPEAETSNPASSSLQKGEETPQQPHLQPVNSPPAPNS

binding [1]: binds
B8: GST-RILP (pGEX-4T-3-RILP) (protein, mouse, UniProt Q5ND29 1-369, looked up, not shown: a dimerising Fc or GST)
chain: MEPRRAAPRLPSQASSSVGAGSAAELVYHLAGALGTELQGLARRFGPDAAAGLVPLVVRALELLEKAAVGPAPDSLQVSAQQAEVELRRLREENQRLRQELGSGPQEERALLRQLKEVTDRQRDELRAHNRDLQRRSQETEALQEQLQRLLLINSELRHKLAAVQTQLRAAQDRERERQIAQDGSSQLAKEQSLEPDAATSDDPVDTQKQPGNLPEAVQCGFSREELKQILQERNELKANVFLLKEELAYFQRELLTDHRVPGLLLEAMKVAVKKQRRKIKAKMLGTPEEAESSEDEDGSWLLLSNDKEDVPLVPESRIQNFFGLWYRGETEAPEAETSNPASSSLQKGEETPQQPHLQPVNSPPAPNS

binding [11]: binds | binding [12]: binds
B9: T7-RILP(N235A) (pEF-T7-RILP(N235A)) (protein, mouse, UniProt Q5ND29 1-369, looked up, not shown: small tags and cut ends)
chain: MEPRRAAPRLPSQASSSVGAGSAAELVYHLAGALGTELQGLARRFGPDAAAGLVPLVVRALELLEKAAVGPAPDSLQVSAQQAEVELRRLREENQRLRQELGSGPQEERALLRQLKEVTDRQRDELRAHNRDLQRRSQETEALQEQLQRLLLINSELRHKLAAVQTQLRAAQDRERERQIAQDGSSQLAKEQSLEPDAATSDDPVDTQKQPGNLPEAVQCGFSREELKQILQERAELKANVFLLKEELAYFQRELLTDHRVPGLLLEAMKVAVKKQRRKIKAKMLGTPEEAESSEDEDGSWLLLSNDKEDVPLVPESRIQNFFGLWYRGETEAPEAETSNPASSSLQKGEETPQQPHLQPVNSPPAPNS
